In the experiment the test system is MDA-MB-231 cells. Put plainly: Cytotoxicity by MTT assay. The experiment is classed as cell-based. The conditions noted are these: Homo sapiens. In general terms: Tetrazolium assays rely on reduction of a dye to a coloured formazan, in cell work by metabolically active cells.

As usually defined, the IC50 is the concentration needed to halve the response being measured.

The compound `COc1cccc2c1C(=O)c1c(O)c3c(c(O)c1C2=O)C[C@@](O)(C(=O)CO)C[C@@H]3O[C@H]1C[C@H](N)[C@H](O)[C@H](C)O1` [DOX, (7S, 9S)-7-[(2R, 4S, 5S, 6S)-4-amino-5-hydroxy-6-methyloxan-2-yl]oxy-6,9,11-trihydroxy-9-(2-hydroxyacetyl)-4-methoxy-8,10-dihydro-7H-tetracene-5,12-dione] displayed an IC50 of 6.2 µM.

These data come from PMC6790403 (International Journal of Nanomedicine, 2019).
